The other results are listed elsewhere or left out.
Columns and labels:
Test in all cases: log2 fold change, soluble protein after heating vs DMSO (PISA); higher = thermal stabilisation; K562 cells, 10 uM, 30 min; active = over 0.2 and 3.5 SD of the protein, either way, in both replicates (recomputed)
[1] = compound: CC[C@@H]1C(=O)N(C)c2cnc(Nc3ccc(C(=O)NC4CCN(C)CC4)cc3OC)nc2N1C1CCCC1
Outline: (§1)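 K562 cells at 2×10^6 cells/mL were treated with 10 μM compound for 30 min. Aliquots were heated for 3 min across 48°C-58°C, pooled, and extracted in PBS with 0.5% NP-40 at 4°C; soluble protein was the supernatant after 21,000xg for 90 min. Soluble protein was quantified by TMTpro 16plex LC-MS/MS with channel sums equalised, and reported as log2 fold change in thermal stability against DMSO controls, with values from duplicates.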

By UniProt entry, the sequences of proteins in these tests, tags left out. Where a name states a change or a piece, a line headed by the entry shows the natural chain unless it says otherwise.
UniProt O60701: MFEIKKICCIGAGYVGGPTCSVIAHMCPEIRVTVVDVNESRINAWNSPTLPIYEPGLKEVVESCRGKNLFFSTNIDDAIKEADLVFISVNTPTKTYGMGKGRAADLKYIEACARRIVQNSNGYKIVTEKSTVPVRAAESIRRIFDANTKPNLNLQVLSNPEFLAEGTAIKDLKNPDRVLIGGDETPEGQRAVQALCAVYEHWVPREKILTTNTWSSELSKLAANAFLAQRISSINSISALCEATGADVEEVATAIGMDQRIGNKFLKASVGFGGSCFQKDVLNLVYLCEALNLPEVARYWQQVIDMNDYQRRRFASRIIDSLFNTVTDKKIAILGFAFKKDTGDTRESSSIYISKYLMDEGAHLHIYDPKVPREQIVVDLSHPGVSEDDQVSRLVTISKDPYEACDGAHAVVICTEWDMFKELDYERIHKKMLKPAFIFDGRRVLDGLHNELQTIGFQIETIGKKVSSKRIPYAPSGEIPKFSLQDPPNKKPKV
UniProt P61960, whole entry, looked up: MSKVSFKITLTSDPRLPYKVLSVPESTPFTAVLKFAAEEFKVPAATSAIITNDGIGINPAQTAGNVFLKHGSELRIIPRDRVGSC
UniProt O94874: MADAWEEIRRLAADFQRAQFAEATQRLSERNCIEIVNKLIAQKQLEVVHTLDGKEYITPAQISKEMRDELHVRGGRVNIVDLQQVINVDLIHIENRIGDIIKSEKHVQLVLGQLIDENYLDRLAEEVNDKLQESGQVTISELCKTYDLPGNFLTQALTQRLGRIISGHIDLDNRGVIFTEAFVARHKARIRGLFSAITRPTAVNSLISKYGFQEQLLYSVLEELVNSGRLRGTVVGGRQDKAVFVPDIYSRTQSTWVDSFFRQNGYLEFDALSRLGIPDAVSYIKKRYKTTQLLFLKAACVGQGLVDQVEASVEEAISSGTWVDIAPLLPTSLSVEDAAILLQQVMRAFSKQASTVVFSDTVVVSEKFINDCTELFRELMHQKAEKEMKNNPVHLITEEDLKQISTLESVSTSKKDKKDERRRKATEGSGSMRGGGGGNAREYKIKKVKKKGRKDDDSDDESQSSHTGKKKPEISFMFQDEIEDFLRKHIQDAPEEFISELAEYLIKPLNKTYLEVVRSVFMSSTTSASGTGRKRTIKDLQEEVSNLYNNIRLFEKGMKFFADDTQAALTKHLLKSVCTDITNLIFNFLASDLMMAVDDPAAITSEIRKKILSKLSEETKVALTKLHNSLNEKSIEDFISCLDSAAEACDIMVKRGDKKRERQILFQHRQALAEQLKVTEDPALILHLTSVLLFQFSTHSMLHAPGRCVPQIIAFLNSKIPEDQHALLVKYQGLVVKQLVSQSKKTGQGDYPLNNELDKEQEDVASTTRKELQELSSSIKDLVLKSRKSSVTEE
UniProt Q93008, whole entry, looked up: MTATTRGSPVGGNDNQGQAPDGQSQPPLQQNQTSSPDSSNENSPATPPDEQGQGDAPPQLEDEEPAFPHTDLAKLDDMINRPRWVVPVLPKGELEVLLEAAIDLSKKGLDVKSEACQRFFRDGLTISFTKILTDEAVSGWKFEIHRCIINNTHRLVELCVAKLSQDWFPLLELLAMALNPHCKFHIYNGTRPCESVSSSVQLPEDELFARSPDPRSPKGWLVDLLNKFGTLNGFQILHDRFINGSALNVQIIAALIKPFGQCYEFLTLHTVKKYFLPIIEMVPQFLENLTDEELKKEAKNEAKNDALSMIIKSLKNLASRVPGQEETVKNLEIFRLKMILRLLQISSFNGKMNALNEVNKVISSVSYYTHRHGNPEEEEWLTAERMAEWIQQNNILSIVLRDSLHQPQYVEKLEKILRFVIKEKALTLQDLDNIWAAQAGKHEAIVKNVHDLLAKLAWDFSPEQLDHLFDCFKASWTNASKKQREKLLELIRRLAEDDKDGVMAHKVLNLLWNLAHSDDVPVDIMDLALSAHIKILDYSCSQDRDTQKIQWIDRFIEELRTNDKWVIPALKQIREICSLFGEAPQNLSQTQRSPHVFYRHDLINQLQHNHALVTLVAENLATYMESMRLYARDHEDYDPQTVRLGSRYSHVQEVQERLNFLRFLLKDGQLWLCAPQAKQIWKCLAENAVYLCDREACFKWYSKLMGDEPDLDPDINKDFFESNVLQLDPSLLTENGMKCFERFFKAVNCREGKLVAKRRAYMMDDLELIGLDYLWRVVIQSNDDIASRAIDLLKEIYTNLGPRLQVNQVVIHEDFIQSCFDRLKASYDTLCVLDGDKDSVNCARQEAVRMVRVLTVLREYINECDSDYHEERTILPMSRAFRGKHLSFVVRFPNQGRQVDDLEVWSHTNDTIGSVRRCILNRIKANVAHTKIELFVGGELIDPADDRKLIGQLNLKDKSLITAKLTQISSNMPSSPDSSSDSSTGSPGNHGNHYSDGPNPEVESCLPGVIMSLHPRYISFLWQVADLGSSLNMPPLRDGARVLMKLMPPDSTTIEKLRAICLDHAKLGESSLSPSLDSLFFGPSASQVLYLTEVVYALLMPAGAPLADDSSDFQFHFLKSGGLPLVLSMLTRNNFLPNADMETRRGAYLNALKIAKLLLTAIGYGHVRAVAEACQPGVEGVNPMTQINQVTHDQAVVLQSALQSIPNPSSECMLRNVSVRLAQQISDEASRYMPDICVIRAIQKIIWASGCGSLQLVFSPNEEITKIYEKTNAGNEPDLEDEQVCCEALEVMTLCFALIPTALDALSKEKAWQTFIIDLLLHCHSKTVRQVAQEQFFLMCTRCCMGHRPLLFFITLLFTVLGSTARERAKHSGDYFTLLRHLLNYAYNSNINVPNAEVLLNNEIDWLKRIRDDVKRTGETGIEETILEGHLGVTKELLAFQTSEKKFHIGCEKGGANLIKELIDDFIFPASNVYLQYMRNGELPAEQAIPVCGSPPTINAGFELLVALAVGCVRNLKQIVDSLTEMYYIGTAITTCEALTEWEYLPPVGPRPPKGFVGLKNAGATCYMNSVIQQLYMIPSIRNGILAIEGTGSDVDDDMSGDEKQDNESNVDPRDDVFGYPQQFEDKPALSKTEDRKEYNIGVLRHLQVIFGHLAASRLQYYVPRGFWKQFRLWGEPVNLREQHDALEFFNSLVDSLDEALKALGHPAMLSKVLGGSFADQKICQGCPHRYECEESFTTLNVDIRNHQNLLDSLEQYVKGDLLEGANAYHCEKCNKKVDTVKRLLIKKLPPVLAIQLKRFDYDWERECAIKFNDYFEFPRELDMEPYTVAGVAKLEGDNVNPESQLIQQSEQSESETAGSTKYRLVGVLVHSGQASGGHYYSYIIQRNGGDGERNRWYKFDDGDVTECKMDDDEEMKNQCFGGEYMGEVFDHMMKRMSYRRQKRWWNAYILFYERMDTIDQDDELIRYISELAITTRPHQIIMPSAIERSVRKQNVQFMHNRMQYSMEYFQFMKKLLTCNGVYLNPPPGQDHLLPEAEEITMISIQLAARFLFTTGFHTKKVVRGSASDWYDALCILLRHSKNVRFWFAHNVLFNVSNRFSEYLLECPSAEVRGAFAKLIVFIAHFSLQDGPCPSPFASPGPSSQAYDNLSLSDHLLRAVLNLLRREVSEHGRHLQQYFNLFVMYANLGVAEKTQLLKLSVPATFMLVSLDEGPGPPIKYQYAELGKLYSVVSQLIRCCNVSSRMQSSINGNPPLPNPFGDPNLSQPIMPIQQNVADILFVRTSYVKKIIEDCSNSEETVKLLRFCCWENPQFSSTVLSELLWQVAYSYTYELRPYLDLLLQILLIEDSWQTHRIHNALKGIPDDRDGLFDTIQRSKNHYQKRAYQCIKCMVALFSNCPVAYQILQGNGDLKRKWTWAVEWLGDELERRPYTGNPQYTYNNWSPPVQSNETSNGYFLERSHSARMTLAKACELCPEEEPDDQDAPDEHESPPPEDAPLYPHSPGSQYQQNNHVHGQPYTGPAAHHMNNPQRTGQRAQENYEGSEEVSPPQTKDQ
UniProt Q92890: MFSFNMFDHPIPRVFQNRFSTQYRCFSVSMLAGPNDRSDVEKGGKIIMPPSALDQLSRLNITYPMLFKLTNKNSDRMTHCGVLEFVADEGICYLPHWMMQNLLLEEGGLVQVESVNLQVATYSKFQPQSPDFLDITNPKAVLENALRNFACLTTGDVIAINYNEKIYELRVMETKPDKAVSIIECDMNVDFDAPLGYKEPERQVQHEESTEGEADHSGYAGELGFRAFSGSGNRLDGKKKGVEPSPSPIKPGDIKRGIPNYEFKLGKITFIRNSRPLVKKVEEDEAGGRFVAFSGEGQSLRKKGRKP
UniProt Q9UHP3: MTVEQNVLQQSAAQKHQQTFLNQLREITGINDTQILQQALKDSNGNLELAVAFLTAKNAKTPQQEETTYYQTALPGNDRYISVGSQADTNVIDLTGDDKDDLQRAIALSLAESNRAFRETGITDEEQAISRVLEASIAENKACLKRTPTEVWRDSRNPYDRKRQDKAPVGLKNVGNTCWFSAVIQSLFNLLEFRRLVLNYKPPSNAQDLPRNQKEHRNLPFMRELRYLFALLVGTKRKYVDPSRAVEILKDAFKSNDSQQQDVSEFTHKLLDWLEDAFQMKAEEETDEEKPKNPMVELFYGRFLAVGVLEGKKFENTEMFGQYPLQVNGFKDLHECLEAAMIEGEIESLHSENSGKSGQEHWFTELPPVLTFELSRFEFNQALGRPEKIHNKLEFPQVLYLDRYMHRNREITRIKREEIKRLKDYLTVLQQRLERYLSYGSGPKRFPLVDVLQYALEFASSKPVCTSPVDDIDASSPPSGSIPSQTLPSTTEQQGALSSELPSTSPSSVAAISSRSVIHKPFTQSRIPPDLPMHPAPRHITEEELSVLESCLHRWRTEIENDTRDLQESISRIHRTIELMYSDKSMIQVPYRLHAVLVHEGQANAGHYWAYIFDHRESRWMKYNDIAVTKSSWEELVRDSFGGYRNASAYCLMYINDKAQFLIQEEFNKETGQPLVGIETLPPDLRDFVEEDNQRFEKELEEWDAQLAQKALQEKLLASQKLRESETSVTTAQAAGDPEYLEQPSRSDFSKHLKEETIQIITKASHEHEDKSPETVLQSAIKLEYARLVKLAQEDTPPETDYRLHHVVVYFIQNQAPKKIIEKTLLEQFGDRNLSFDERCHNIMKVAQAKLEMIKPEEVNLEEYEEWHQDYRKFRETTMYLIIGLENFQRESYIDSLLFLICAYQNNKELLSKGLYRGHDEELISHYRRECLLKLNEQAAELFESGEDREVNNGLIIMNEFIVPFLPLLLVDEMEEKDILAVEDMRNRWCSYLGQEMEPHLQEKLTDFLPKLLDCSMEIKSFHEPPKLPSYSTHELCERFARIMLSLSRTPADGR
UniProt O95155, whole entry, looked up: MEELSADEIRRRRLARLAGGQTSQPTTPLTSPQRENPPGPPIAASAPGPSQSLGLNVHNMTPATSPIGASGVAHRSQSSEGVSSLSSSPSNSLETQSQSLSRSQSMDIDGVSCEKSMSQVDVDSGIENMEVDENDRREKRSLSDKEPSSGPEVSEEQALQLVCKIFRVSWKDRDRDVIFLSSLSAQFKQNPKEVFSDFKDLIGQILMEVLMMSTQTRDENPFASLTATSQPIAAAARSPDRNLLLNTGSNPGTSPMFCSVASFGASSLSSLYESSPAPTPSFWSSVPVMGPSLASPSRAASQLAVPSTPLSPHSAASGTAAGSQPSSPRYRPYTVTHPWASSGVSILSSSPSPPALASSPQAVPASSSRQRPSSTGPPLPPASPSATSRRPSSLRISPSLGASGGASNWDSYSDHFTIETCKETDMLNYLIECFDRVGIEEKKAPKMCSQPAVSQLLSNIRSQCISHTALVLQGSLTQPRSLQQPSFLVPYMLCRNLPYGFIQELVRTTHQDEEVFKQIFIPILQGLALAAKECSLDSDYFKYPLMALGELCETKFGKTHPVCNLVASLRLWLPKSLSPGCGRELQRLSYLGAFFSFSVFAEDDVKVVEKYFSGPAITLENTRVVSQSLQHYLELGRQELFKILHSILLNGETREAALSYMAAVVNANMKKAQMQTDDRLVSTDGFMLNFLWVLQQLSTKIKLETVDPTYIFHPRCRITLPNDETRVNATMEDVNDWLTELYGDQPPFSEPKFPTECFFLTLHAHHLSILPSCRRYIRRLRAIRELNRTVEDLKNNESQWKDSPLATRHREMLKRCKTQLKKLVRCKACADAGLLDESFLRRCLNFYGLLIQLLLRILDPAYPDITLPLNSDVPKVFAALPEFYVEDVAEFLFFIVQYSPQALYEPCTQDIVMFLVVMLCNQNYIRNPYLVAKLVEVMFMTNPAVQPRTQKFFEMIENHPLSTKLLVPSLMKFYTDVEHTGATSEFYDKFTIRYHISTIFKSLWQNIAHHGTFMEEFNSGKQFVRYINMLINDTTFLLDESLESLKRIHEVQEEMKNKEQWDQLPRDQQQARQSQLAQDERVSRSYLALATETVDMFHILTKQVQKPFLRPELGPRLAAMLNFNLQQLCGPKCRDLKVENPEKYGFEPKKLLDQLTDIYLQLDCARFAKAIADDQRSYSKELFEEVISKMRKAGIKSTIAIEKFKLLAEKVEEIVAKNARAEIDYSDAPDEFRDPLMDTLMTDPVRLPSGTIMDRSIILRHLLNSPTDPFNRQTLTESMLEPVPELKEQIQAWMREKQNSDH

[2] = compound: CC[C@H](C)N1C=C(C2=C(C=C(C=C21)C3=CN=C(C=C3)N4CCNCC4)C(=O)NCC5=C(C=C(NC5=O)C)C)C
Outline: as §1

volasertib = compound: CC[C@@H]1C(=O)N(C)c2cnc(Nc3ccc(C(=O)N[C@H]4CC[C@H](N5CCN(CC6CC6)CC5)CC4)cc3OC)nc2N1C(C)C [volasertib]
Outline: as §1

[3] = compound: CCn1c(C(=O)N(C2CC2)C2CC2)cc2c3c(ncn3C)c(Nc3cc(C)n(C)n3)nc21
Outline: as §1

[4] = compound: CCn1cc(-c2ccnc3[nH]c(-c4cccc(CN(C)C)c4)cc23)c(-c2ccc(NC(=O)N(C)C)cc2)n1
Outline: as §1

[5] = compound: CN(C)CC(=O)Nc1ccc2[nH]c(=O)c3ccccc3c2c1
Outline: as §1

rosiglitazone = compound: CN(CCOC1=CC=C(C=C1)C[C@H]2C(=O)NC(=O)S2)C3=CC=CC=N3 (racemic) [rosiglitazone]
Outline: as §1

[6] = compound: CN1C2=C(C3=C1C(=O)N(N=C3)CC4=CC(=CC=C4)N)SC(=C2)S(=O)C
Outline: as §1

[7] = compound: CN1CCC(CNc2ccc3ncc(-c4cccc(OC(F)(F)F)c4)n3n2)CC1
Outline: as §1

epoxomicin = compound: CC[C@H](C)[C@@H](C(=O)N[C@@H]([C@@H](C)O)C(=O)N[C@@H](CC(C)C)C(=O)[C@]1(CO1)C)NC(=O)[C@H]([C@@H](C)CC)N(C)C(=O)C [epoxomicin]
Outline: as §1

Measured: log2 fold change

USP48 (UniProt Q86UV5)
inactive: [1] -0.159 | [2] 0.059

UNK (UniProt Q9C0B0)
inactive: [1] -0.058 | volasertib -0.091 | [2] 0.066 | [3] -0.017 | [4] -0.007 | [5] -0.103 | rosiglitazone -0.024 | [6] -0.059 | [7] 0.069

UGDH (UniProt O60701)
inactive: [1] -0.041 | volasertib -0.128 | [2] 0.11 | epoxomicin 0.064 | [4] 0.031 | [5] 0.05 | [6] -0.113 | [7] -0.106

UBIAD1 (UniProt Q9Y5Z9)
inactive: [1] -0.008 | volasertib -0.065 | [2] -0.014 | [4] 0.027 | [5] -0.011 | [6] -0.094 | [7] -0.041

VAMP7 (UniProt P51809)
inactive: [1] -0.057 | volasertib -0.019 | [2] 0.009 | epoxomicin 0.045 | [4] -0.026 | [5] 0.014 | [6] -0.07 | [7] -0.181

UFM1 (UniProt P61960)
inactive: [1] 0.025 | volasertib -0.13 | [2] -0.092 | epoxomicin 0.023 | [5] 0.043 | [6] -0.062

UFL1 (UniProt O94874)
inactive: [1] -0.063 | [2] 0.086 | epoxomicin 0.004 | [4] -0.023 | [5] 0.054 | [6] 0.04 | [7] -0.089
active: volasertib -0.351

UMAD1 (UniProt C9J7I0)
inactive: [1] -0.017 | volasertib 0.089 | [2] -0.036 | [3] 0.014 | [4] 0.126 | rosiglitazone -0.041 | [6] -0.01 | [7] 0.166

UCHL5 isoform 3 (UniProt Q9Y5K5)
active: volasertib -0.617
inactive: [1] -0.008 | [2] 0.126 | epoxomicin 0.293 | [5] 0.074

USP14 (UniProt P54578)
inactive: [1] -0.08 | volasertib -0.197 | [2] 0.053 | epoxomicin 0.106 | [4] -0.011 | [5] 0.003 | [6] -0.082 | [7] -0.072

USF3 (UniProt Q68DE3)
inactive: [1] 0.071 | volasertib -0.01 | epoxomicin -0.19 | [5] -0.143 | rosiglitazone 0.007

UFM1 isoform 2 (UniProt P61960)
inactive: [1] 0.116 | volasertib 0.012 | [2] 0.069 | epoxomicin 0.029 | [4] -0.001 | [5] 0.114 | [6] 0.004 | [7] -0.005

USP9X (UniProt Q93008)
inactive: [1] -0.108 | [2] 0.038 | epoxomicin 0.01 | [4] -0.056 | [5] 0.01 | [6] -0.028 | [7] -0.21
active: volasertib -0.382

UBXN8 (UniProt O00124)
inactive: [1] 0.081 | volasertib -0.179 | epoxomicin 0.073 | [4] -0.039 | [5] -0.051 | [6] 0.147 | [7] -0.297

UFD1 isoform 1 (UniProt Q92890)
inactive: [1] -0.009 | volasertib 0.021 | [2] 0.008 | epoxomicin 0.063 | [4] 0.063 | [5] 0.003 | [6] -0.045 | [7] -0.015

UBR2 (UniProt Q8IWV8)
inactive: [1] 0.046 | volasertib -0.104 | [2] -0.004 | epoxomicin 0.196 | [4] -0.039 | [5] -0.076 | [6] 0.114 | [7] -0.063

USP34 (UniProt Q70CQ2)
active: volasertib -0.455
inactive: [1] -0.215 | [2] -0.023 | epoxomicin 0.02 | [4] -0.043 | [5] 0.014 | [6] 0.015 | [7] -0.201

UTP4 (UniProt Q969X6)
active: [7] 0.233
inactive: [1] 0.032 | volasertib 0.006 | [2] -0.017 | epoxomicin -0.02 | [4] 0.043 | [5] -0.036 | [6] -0.061

USP25 isoform 3 (UniProt Q9UHP3)
active: volasertib -0.297
inactive: [1] -0.085 | [2] 0.046 | epoxomicin 0.008 | [4] -0.004 | [5] 0.041 | [6] -0.03 | [7] -0.006

UHRF1BP1L (UniProt A0JNW5)
inactive: [1] 0.165 | volasertib 0.034 | [2] -0.009 | epoxomicin -0.022 | [4] -0.086 | [5] 0.02 | [6] -0.079 | [7] 0.1

UBLCP1 (UniProt Q8WVY7)
active: volasertib -0.356
inactive: [1] -0.191 | [2] 0.019 | epoxomicin 0.168 | [4] -0.072 | [5] 0.039 | [6] -0.024 | [7] 0.013

UBE4B isoform 4 (UniProt O95155)
active: volasertib -0.229
inactive: [1] -0.046 | [2] 0.024 | epoxomicin 0.023 | [4] -0.005 | [5] 0.01 | [6] -0.003 | [7] -0.079

ULK3 isoform 4 (UniProt Q6PHR2)
inactive: [1] -0.402 | volasertib -0.261 | epoxomicin 0.153 | [4] -0.021 | rosiglitazone 0.1 | [7] -0.615

URI1 isoform 4 (UniProt O94763)
inactive: [1] -0.016 | [2] 0.245 | epoxomicin 0.218 | [3] -0.198 | [4] 0.225 | [5] 0.081 | rosiglitazone -0.079 | [6] 0.004 | [7] -0.02

UPF3B (UniProt Q9BZI7)
inactive: [1] 0.146 | volasertib 0.333 | [2] 0.059 | epoxomicin -0.388 | [4] 0.271 | [5] -0.1 | [6] 0.28 | [7] 0.341

VARS2, A0A0G2JL52
inactive: [1] -0.024 | volasertib 0.001 | [2] 0.08 | epoxomicin 0.011 | [4] -0.013 | [5] 0.007 | [6] -0.016 | [7] -0.126

USP7 (UniProt Q93009)
inactive: [1] -0.045 | volasertib -0.215 | [2] 0.101 | epoxomicin 0.02 | [4] -0.164 | [5] 0.097 | [6] -0.005
active: [7] -0.351

UXT isoform 2 (UniProt Q9UBK9)
inactive: [1] 0.082 | volasertib 0.128 | [2] 0.05 | epoxomicin -0.038 | [4] -0.248 | [5] 0.015 | [6] -0.052 | [7] -0.126

Reprinted at random: 2 entries already listed.
USP7 (UniProt Q93009)
inactive: [1] -0.045 | volasertib -0.215 | [2] 0.101 | epoxomicin 0.02 | [4] -0.164 | [5] 0.097 | [6] -0.005
active: [7] -0.351

URI1 isoform 4 (UniProt O94763)
inactive: [1] -0.016 | [2] 0.245 | epoxomicin 0.218 | [3] -0.198 | [4] 0.225 | [5] 0.081 | rosiglitazone -0.079 | [6] 0.004 | [7] -0.02

The results go on:

UNC119B (UniProt A6NIH7)
inactive: [1] -0.168 | volasertib 0.066 | [2] -0.224 | [4] -0.104 | [5] -0.023 | [6] 0.004 | [7] 0.047

UGGT1 (UniProt Q9NYU2)
inactive: [1] -0.01 | volasertib -0.058 | [2] 0.03 | epoxomicin -0.006 | [4] 0.002 | [5] -0.024 | [6] 0.008 | [7] 0.049

UTP14A (UniProt Q9BVJ6)
inactive: [1] 0.092 | volasertib 0.176 | [2] 0.028 | epoxomicin -0.144 | [4] 0.106 | [5] -0.136 | [6] 0.263 | [7] 0.106

UTP3 (UniProt Q9NQZ2)
inactive: [1] 0.067 | volasertib -0.012 | epoxomicin -0.376 | [4] 0.236 | [5] -0.052 | [6] 0.165 | [7] 0.092

From the supplement of paper PMC10849652
